According to the supplement of paper PMC4807443:
Structures can show the parent of a compound that is named as a salt. The list shows a part of the results. The numbers are fractions of the control, whatever unit the source prints. Most values lie at the level of the controls, where differences are scatter.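 MIN6 is a mouse insulinoma beta-cell line that stably carries a lentiviral reporter in which the Pdx1 and Ins1 promoters each drive a nucleus-targeted fluorescent protein; cells were counted by automated imaging with a Hoechst nuclear stain. In the screen, a drug was a possible hit when its Ins1 promoter readout lay beyond two median absolute deviations from the DMSO controls while Pdx1 activity stayed near normal.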

system: MIN6; test: % Pdx1+ Ins1+ (double-positive, mature) cells relative to DMSO control (fold of DMSO control); higher = more mature Ins1 promoter-active cells; conditions: 8.5 µM; 48 h; glucose 5 mM

Row | Structure (SMILES) | % Pdx1+ Ins1+
1 | CC(CN(C)C)CN1c2ccccc2Sc2ccccc21 (stereo not drawn) [Trimeprazine tartrate] | 0.998
2 | CC1(C)[C@@H](OC(=O)CCC(=O)O)CC[C@]2(C)[C@H]3C(=O)C=C4[C@@H]5C[C@@](C)(C(=O)O)CC[C@]5(C)CC[C@@]4(C)[C@]3(C)CC[C@@H]12 [Carbenoxolone disodium salt] | 0.96
3 | O=C(/C=C/c1ccc(O)c(O)c1)O[C@@H]1C[C@](O)(C(=O)O)C[C@@H](O)[C@H]1O [Chlorogenic acid] | 0.751
4 | C=CCOC(Cn1ccnc1)c1ccc(Cl)cc1Cl (stereo not drawn) [Enilconazole] | 1.01
5 | CC[C@@H](CO)NCCN[C@@H](CC)CO [Ethambutol dihydrochloride] | 1.2
6 | CC(=O)OCC(=O)[C@@]1(OC(C)=O)[C@@H](C)C[C@H]2[C@@H]3C[C@H](F)C4=CC(=O)C=C[C@]4(C)[C@@]3(F)[C@@H](O)C[C@@]21C [Diflorasone Diacetate] | 0.897
7 | CCCOc1ccc(C(=O)OCCN(CC)CC)cc1N [Proparacaine hydrochloride] | 0.928
8 | C=CCSCC1Nc2cc(Cl)c(S(N)(=O)=O)cc2S(=O)(=O)N1 (stereo not drawn) [Althiazide] | 0.91
9 | c1ccc(CN(CC2=NCCN2)c2ccccc2)cc1 [Antazoline hydrochloride] | 1.12
10 | CC(=O)N(CC(O)CN(C(C)=O)c1c(I)c(C(=O)NCC(O)CO)c(I)c(C(=O)NCC(O)CO)c1I)c1c(I)c(C(=O)NCC(O)CO)c(I)c(C(=O)NCC(O)CO)c1I (stereo not drawn) [Iodixanol] | 0.976
11 | CC(C(=O)O)c1ccc(C(=O)c2ccccc2)s1 (stereo not drawn) [Tiaprofenic acid] | 0.867
12 | Cc1ccsc1/C=C/C1=NCCCN1C [Morantel tartrate] | 1.06
13 | CN(C)c1ccc(O)c2c1C[C@H]1C[C@H]3[C@H](N(C)C)C(O)=C(C(N)=O)C(=O)[C@@]3(O)C(O)=C1C2=O [Minocycline hydrochloride] | 0.963
14 | CCN(CC)CCNc1ccc(CO)c2sc3ccccc3c(=O)c12 [Hycanthone] | 0.746
15 | O=C(COc1ccc(Cl)cc1)N1CCN(Cc2ccc3c(c2)OCO3)CC1 [Fipexide hydrochloride] | 0.996
16 | CNC(C)CCC=C(C)C (stereo not drawn) [Isometheptene mucate] | 0.905
17 | CN(Cc1cnc2nc(N)nc(N)c2n1)c1ccc(C(=O)N[C@@H](CCC(=O)O)C(=O)O)cc1 (racemic) [Amethopterin (R,S)] | 0.683
18 | CN(Cc1cnc2nc(N)nc(N)c2n1)c1ccc(C(=O)N[C@@H](CCC(=O)O)C(=O)O)cc1 [Methotrexate] | 0.99
19 | CCOC(=O)c1ccc(N)cc1 [Benzocaine] | 0.865
20 | CCN(CC)CCOC(=O)C(c1ccccc1)c1ccccc1 [Adiphenine hydrochloride] | 1.17
21 | OC(CCCN1CCCCC1)(c1ccccc1)c1ccccc1 [Diphenidol hydrochloride] | 1.09
22 | Cc1ccc(S(=O)(=O)NC(=O)NN2CCCCCC2)cc1 [Tolazamide] | 0.867

Row | Structure (SMILES) | % Pdx1+ Ins1+
23 | C[C@]12CC[C@@H]3c4ccc(OS(=O)(=O)O)cc4CC[C@H]3[C@@H]1CCC2=O [Estropipate] | 0.876
24 | CCCCNc1c(C(=O)OCC)c(C)nc2c1cnn2CC [Tracazolate hydrochloride] | 0.869
25 | CCCCC1(COC(=O)CCC(=O)O)C(=O)N(c2ccccc2)N(c2ccccc2)C1=O [Suxibuzone] | 0.803
26 | COc1cc(NC(C)CCCN)c2ncccc2c1 (stereo not drawn) [Primaquine diphosphate] | 0.824
27 | COc1cc(-c2ccc(=O)[nH]n2)ccc1OC(F)F [Zardaverine] | 0.862
28 | O=c1cc(-c2ccc(O)cc2)oc2c([C@@H]3O[C@H](CO)[C@@H](O)[C@H](O)[C@H]3O)c(O)cc(O)c12 [Vitexin] | 0.847
29 | Cc1cc(-c2ccccc2)nnc1NCCN1CCOCC1 [Minaprine dihydrochloride] | 1.2
30 | NC(N)=Nc1nc(CSCC/C(N)=N/S(N)(=O)=O)cs1 [Famotidine] | 1.15
31 | CC1=C(/C=C/C(C)=C/C=C/C(C)=C\C(=O)O)C(C)(C)CCC1 [Isotretinoin] | 1.14
32 | CC/C(=C(/CC)c1ccc(O)cc1)c1ccc(O)cc1 [Diethylstilbestrol] | 0.594
33 | CSc1ccc2c(c1)N(CCC1CCCCN1C)c1ccccc1S2 (stereo not drawn) [Thioridazine hydrochloride] | 1.09
34 | CN(C)[C@@H]1C(O)=C(C(N)=O)C(=O)[C@@]2(O)C(O)=C3C(=O)c4c(O)cccc4[C@@](C)(O)[C@H]3[C@H](O)[C@@H]12 [Oxytetracycline dihydrate] | 0.976
35 | COc1ccc(CC2c3cc(OC)c(OC)cc3CC[N+]2(C)CCC(=O)OCCCCCOC(=O)CC[N+]2(C)CCc3cc(OC)c(OC)cc3C2Cc2ccc(OC)c(OC)c2)cc1OC (stereo not drawn) [Atracurium besylate] | 0.983
36 | CC(=O)[C@H]1CC[C@H]2[C@@H]3CC=C4C[C@@H](O)CC[C@]4(C)[C@H]3CC[C@]12C [Pregnenolone] | 0.97
37 | CCCCN1CCCCC1C(=O)Nc1c(C)cccc1C (stereo not drawn) [Bupivacaine hydrochloride] | 1.11
38 | CCOC(=O)NNc1nncc2ccccc12 [Todralazine hydrochloride] | 1.14
39 | CC(C)(C)c1ccc(C(O)CCCN2CCC(C(O)(c3ccccc3)c3ccccc3)CC2)cc1 (stereo not drawn) [Terfenadine] | 0.881
40 | CC(COc1ccccc1)NC(C)C(O)c1ccc(O)cc1 (stereo not drawn) [Isoxsuprine hydrochloride] | 1.01
41 | CC[C@@H](C(=O)[C@@H](C)[C@@H](O)[C@H](C)CCc1ccc(C)c(O)c1C(=O)O)[C@H]1O[C@](CC)([C@H]2CC[C@](O)(CC)[C@H](C)O2)C[C@@H]1C [Lasalocid sodium salt] | 0.544
42 | CO[C@H]1C[C@H](O[C@H]2[C@H](C)[C@@H](O[C@@H]3O[C@H](C)C[C@H](N(C)C)[C@H]3O)[C@@H](C)C[C@@]3(CO3)C(=O)[C@H](C)[C@@H](O)[C@@H](C)[C@@H](C)OC(=O)[C@@H]2C)O[C@@H](C)[C@@H]1O [Oleandomycin phosphate] | 1.1
43 | Nc1ccc(S(=O)(=O)Nc2ccccn2)cc1 [Sulfapyridine] | 0.84

Rewritten tab-delimited: part of the list above.
Row	Structure (SMILES)	% Pdx1+ Ins1+
11	CC(C(=O)O)c1ccc(C(=O)c2ccccc2)s1 (stereo not drawn) [Tiaprofenic acid]	0.867
12	Cc1ccsc1/C=C/C1=NCCCN1C [Morantel tartrate]	1.06
18	CN(Cc1cnc2nc(N)nc(N)c2n1)c1ccc(C(=O)N[C@@H](CCC(=O)O)C(=O)O)cc1 [Methotrexate]	0.99
19	CCOC(=O)c1ccc(N)cc1 [Benzocaine]	0.865
21	OC(CCCN1CCCCC1)(c1ccccc1)c1ccccc1 [Diphenidol hydrochloride]	1.09
23	C[C@]12CC[C@@H]3c4ccc(OS(=O)(=O)O)cc4CC[C@H]3[C@@H]1CCC2=O [Estropipate]	0.876
33	CSc1ccc2c(c1)N(CCC1CCCCN1C)c1ccccc1S2 (stereo not drawn) [Thioridazine hydrochloride]	1.09
36	CC(=O)[C@H]1CC[C@H]2[C@@H]3CC=C4C[C@@H](O)CC[C@]4(C)[C@H]3CC[C@]12C [Pregnenolone]	0.97
41	CC[C@@H](C(=O)[C@@H](C)[C@@H](O)[C@H](C)CCc1ccc(C)c(O)c1C(=O)O)[C@H]1O[C@](CC)([C@H]2CC[C@](O)(CC)[C@H](C)O2)C[C@@H]1C [Lasalocid sodium salt]	0.544
42	CO[C@H]1C[C@H](O[C@H]2[C@H](C)[C@@H](O[C@@H]3O[C@H](C)C[C@H](N(C)C)[C@H]3O)[C@@H](C)C[C@@]3(CO3)C(=O)[C@H](C)[C@@H](O)[C@@H](C)[C@@H](C)OC(=O)[C@@H]2C)O[C@@H](C)[C@@H]1O [Oleandomycin phosphate]	1.1
